Test results from article PMC8155045.

Key:
Assay in all cases: EMSA
[1] = test system: EGFP-NF-YA (37 kDa isoform) + NF-YB minimal domain (YBmd) + NF-YC minimal domain (YCmd); conditions: 60 nM YB/YCmd added, bound fraction increased; EMSA: 20 nM Cy5 probe, 10 ug HeLa nuclear extract, 30 min at 30 C; 4.5% native PAGE in 0.25x TBE; binding buffer; protein in a lysate after overexpression; protein details: N-terminal EGFP; label: 5'-Cy5
[2] = test system: EGFP-NF-YA (37 kDa isoform) + endogenous NF-YB + endogenous NF-YC; conditions: EGFP-YA transfected HeLa nuclear extract, endogenous complex completely substituted; EMSA: 20 nM Cy5 probe, 10 ug HeLa nuclear extract, 30 min at 30 C; 4.5% native PAGE in 0.25x TBE; binding buffer; protein in a lysate after overexpression; protein details: N-terminal EGFP; label: 5'-Cy5
[3] = test system: endogenous NF-YA + NF-YB minimal domain (YBmd) + NF-YC minimal domain (YCmd); conditions: 60 nM YB/YCmd added to nuclear extract; EMSA: 20 nM Cy5 probe, 10 ug HeLa nuclear extract, 30 min at 30 C; 4.5% native PAGE in 0.25x TBE; binding buffer; protein in an extract; label: 5'-Cy5
[4] = test system: endogenous NF-YA + endogenous NF-YB + endogenous NF-YC; conditions: HeLa nuclear extract 10 ug; EMSA: 20 nM Cy5 probe, 10 ug HeLa nuclear extract, 30 min at 30 C; 4.5% native PAGE in 0.25x TBE; binding buffer; protein in an extract; label: 5'-Cy5

Measured: binding result

CTTCTGAGCCAATCACCGAGCTCGATGAGGC (double strand) [HSP70 promoter CCAAT-box probe]
binds: [1] | [2] | [3] | [4]

The exact form of at least one protein or probe is not confirmed. Results from cells or extracts need not show a direct contact.
